Test results: patent US20170189504A1, “NOVEL PEPTIDES AND COMBINATION OF PEPTIDES FOR USE IN IMMUNOTHERAPY AGAINST VARIOUS CANCERS” (immatics biotechnologies GmbH, priority 2015, published 2017)

System: HLA-A*02
Assay: Identification and relative LC-MS quantitation of HLA-A*02-presented tumor-associated peptides on tissue samples (presentation profiles, Tables 13A, 13B, 15, FIG. 1)
Set-up: species or system human; key to Presentation score NHL / Presentation score CLL / Presentation score BRCA / Presentation score AML / Presentation score GB / Presentation score NSCLC / Presentation score GBC_CCC / Presentation score UEC / Presentation score MEL / Presentation score OSCAR / Presentation score GC / Presentation score UBC / Presentation score OC / Presentation score RCC / Presentation score CRC / Presentation score PCA / Presentation score HCC / Presentation score PC / Presentation score SCLC: specifically presented on tumors (++++); very highly over-presented on tumors compared to a panel of normal tissues (+++); highly over-presented on tumors compared to a panel of normal tissues (++); over-presented on tumors compared to a panel of normal tissues (+)
Settings: for Presentation score GBC_CCC / Presentation score GB / Presentation score HCC / Presentation score NSCLC / Presentation score MEL / Presentation score NHL / Presentation score AML / Presentation score OSCAR / Presentation score OC / Presentation score GC / Presentation score UBC / Presentation score CLL / Presentation score CRC / Presentation score UEC / Presentation score SCLC / Presentation score BRCA / Presentation score PCA: HLA-A*02 peptides; for Presentation score GBC_CCC: gallbladder adenocarcinoma and cholangiocarcinoma (N = 6) vs panel of normal tissues (N = 262); for Presentation score GB: glioblastoma (N = 41) vs panel of normal tissues (N = 262); for Presentation score HCC: hepatocellular carcinoma (N = 16) vs panel of normal tissues (N = 262); for Presentation score NSCLC: non-small cell lung cancer (N = 90) vs panel of normal tissues (N = 262); for Peptide Presentation on cancer entities: HLA-A*02-binding tumor-associated peptides; for Presentation score MEL: melanoma (N = 7) vs panel of normal tissues (N = 262); for Presentation score NHL: non-Hodgkin lymphoma (N = 18) vs panel of normal tissues (N = 262); for Presentation score AML: acute myeloid leukemia (N = 18) vs panel of normal tissues (N = 262); for Presentation score OSCAR: esophageal cancer, including cancer of the gastric-esophageal junction (N = 17) vs panel of normal tissues (N = 262); for Presentation score OC: ovarian cancer (N = 20) vs panel of normal tissues (N = 262); for Presentation score GC: gastric cancer (N = 29) vs panel of normal tissues (N = 262); for Presentation score UBC: urinary bladder cancer (N = 16) vs panel of normal tissues (N = 262); for Presentation score CLL: chronic lymphocytic leukemia (N = 17) vs panel of normal tissues (N = 262); for Presentation score CRC: colorectal cancer (N = 28) vs panel of normal tissues (N = 262); for Presentation score UEC: uterine cancer (N = 15) vs panel of normal tissues (N = 262); for Presentation score SCLC: small cell lung cancer (N = 19) vs panel of normal tissues (N = 262); for Presentation score BRCA: breast cancer (N = 17) vs panel of normal tissues (N = 262); for Presentation score PCA: prostate cancer and benign prostate hyperplasia (N = 39) vs panel of normal tissues (N = 262)
[1] = Table 13A, cancer entities on which the peptide was found presented
[2] = Table 13B, presentation on additional cancer entities
[3] = FIG. 1, A*02 positive samples, only samples with presentation shown

143 (ALLPELREV; listed as Homo sapiens) [compound 143]
Presentation score GBC_CCC: +
Presentation score GB: +
Presentation score HCC: +
Presentation score NSCLC: +
Peptide Presentation on cancer entities [1]: GB, GC, NSCLC, HCC, BRCA, GBC_CCC, RCC, CRC
Peptide Presentation on cancer entities [2]: OC, SCLC, AML, HNSCC

256 (SLGEEQFSV; listed as Homo sapiens) [compound 256]
Presentation score MEL: ++++
Presentation score NHL: ++++
Peptide Presentation on cancer entities [1]: MEL, NHL

106 (FINDSIVYL; listed as Homo sapiens) [compound 106]
Presentation score AML: ++++
Peptide Presentation on cancer entities [1]: AML
Peptide Presentation on cancer entities [2]: NSCLC, HCC, CRC, NHL

250 (SLAPATPEV; listed as Homo sapiens) [compound 250]
Peptide Presentation on cancer entities [1]: MEL, NHL
Peptide Presentation on cancer entities [2]: BRCA, HNSCC

73 (YTLREVDTV; listed as Homo sapiens) [compound 73]
Presentation score OSCAR: ++++
Presentation score NSCLC: ++++
Presentation score OC: ++++
Peptide Presentation on cancer entities [1]: NSCLC, OSCAR, OC
Peptide Presentation on cancer entities [2]: AML

80 (KLYEADFVL; listed as Homo sapiens) [compound 80]
Presentation score AML: ++++
Presentation score NHL: ++++
Presentation score NSCLC: ++++
Peptide Presentation on cancer entities [1]: NSCLC, AML, NHL

46 (SQFPLPLAV; listed as Homo sapiens) [compound 46]
Presentation score OSCAR: ++++
Presentation score GC: ++++
Presentation score NSCLC: ++++
Presentation score UBC: ++++
Peptide Presentation on cancer entities [1]: GC, NSCLC, OSCAR, UBC
Peptide Presentation on cancer entities [2]: MEL, HNSCC

154 (RLLGTEFQV; listed as Homo sapiens) [compound 154]
Presentation score MEL: +
Peptide Presentation on cancer entities [2]: SCLC

132 (ILGEVLAQL; listed as Homo sapiens) [compound 132]
Presentation score CLL: ++++
Presentation score NHL: ++++
Peptide Presentation on cancer entities [1]: CLL, NHL

245 (SLLDLPLSL; listed as Homo sapiens) [compound 245]
Presentation score CLL: ++++
Presentation score NHL: ++++
Peptide Presentation on cancer entities [1]: CLL, NHL
Peptide Presentation on cancer entities [2]: NSCLC, RCC, AML, HNSCC

255 (SLLHFTENL; listed as Homo sapiens) [compound 255]
Presentation score AML: ++++
Presentation score NHL: ++++
Peptide Presentation on cancer entities [1]: AML, NHL
Peptide Presentation on cancer entities [2]: NSCLC, CRC

51 (LLFSRLCGA; listed as Homo sapiens) [compound 51]
Presentation score GB: ++++
Presentation score NSCLC: ++++
Peptide Presentation on cancer entities [1]: GB, NSCLC
Peptide Presentation on cancer entities [2]: UEC

27 (RLMEENWNA; listed as Homo sapiens) [compound 27]
Presentation score CRC: ++++
Presentation score OSCAR: ++++
Presentation score NSCLC: ++++
Presentation score OC: ++++
Presentation score UEC: ++++
Peptide Presentation on cancer entities [1]: NSCLC, OSCAR, OC, UEC, CRC

77 (TLIDEQDIPLV; listed as Homo sapiens) [compound 77]
Presentation score NSCLC: ++++
Presentation score OC: ++++
Presentation score SCLC: ++++
Peptide Presentation on cancer entities [1]: NSCLC, OC, SCLC
Peptide Presentation on cancer entities [2]: SCLC, NHL, HNSCC

90 (FLQDLEQRL; listed as Homo sapiens) [compound 90]
Presentation score SCLC: +++
Presentation score UBC: +
Peptide Presentation on cancer entities [1]: GC, NSCLC, PCA, CLL, OSCAR, OC, SCLC, UBC, UEC, BRCA, GBC_CCC, CRC, NHL
Peptide Presentation on cancer entities [2]: HNSCC

13 (ALMAMLVYV; listed as Homo sapiens) [compound 13]
number of cancer tissues where the peptide was found to be presented [3]: 17
Presentation score BRCA: ++++
Presentation score GBC_CCC: ++++
Presentation score GC: ++++
Presentation score NSCLC: ++++
Presentation score OC: ++++
Presentation score SCLC: ++++
Peptide Presentation on cancer entities [1]: GC, NSCLC, OC, SCLC, BRCA, GBC_CCC
Peptide Presentation on cancer entities [2]: GBC_CCC, MEL, NHL, HNSCC

238 (GLYERPTAA; listed as Homo sapiens) [compound 238]
Presentation score AML: ++
Peptide Presentation on cancer entities [1]: NSCLC, PCA, PC, AML
Peptide Presentation on cancer entities [2]: GC, MCC, OSCAR, CRC, NHL

142 (ILVEGISTV; listed as Homo sapiens) [compound 142]
Presentation score NSCLC: +++
Presentation score PCA: +
Peptide Presentation on cancer entities [1]: GB, NSCLC, PCA, OC, SCLC, BRCA, GBC_CCC

101 (ALADFMLSL; listed as Homo sapiens) [compound 101]
Presentation score AML: ++++
Peptide Presentation on cancer entities [1]: AML

4 (KLMPGTYTL; listed as Homo sapiens) [compound 4]
Peptide Presentation on cancer entities [1]: NSCLC, OC, UEC, AML, NHL
Peptide Presentation on cancer entities [2]: MEL, HNSCC

237 (ALAPHLDDA; listed as Homo sapiens) [compound 237]
number of cancer tissues where the peptide was found to be presented [3]: 10
number of cell lines where the peptide was found to be presented [3]: 1
Presentation score BRCA: ++++
Presentation score GB: ++++
Presentation score HCC: ++++
Presentation score MEL: ++++
Presentation score NSCLC: ++++
Presentation score OC: ++++
Presentation score UBC: ++++
Presentation score UEC: ++++
Peptide Presentation on cancer entities [1]: GB, NSCLC, HCC, OC, UBC, UEC, BRCA, MEL
Peptide Presentation on cancer entities [2]: SCLC, AML

133 (ALLPRLHQL; listed as Homo sapiens) [compound 133]
Presentation score PCA: ++++
Peptide Presentation on cancer entities [1]: PCA

85 (VLNDILVRA; listed as Homo sapiens) [compound 85]
Presentation score OC: ++++
Presentation score UEC: ++++
Peptide Presentation on cancer entities [1]: OC, UEC

263 (VLLSEQGDVKL; listed as Homo sapiens) [compound 263]
Presentation score CLL: +
Presentation score OSCAR: +
Presentation score MEL: +
Presentation score NHL: +
Presentation score NSCLC: +++
Peptide Presentation on cancer entities [1]: NSCLC, PCA, CLL, OSCAR, OC, MEL, NHL
Peptide Presentation on cancer entities [2]: UEC, AML

131 (VTSNSGILGV; listed as Homo sapiens) [compound 131]
Presentation score CLL: ++++
Presentation score NHL: ++++
Peptide Presentation on cancer entities [1]: CLL, NHL

97 (STLPKSLSL; listed as Homo sapiens) [compound 97]
Presentation score OSCAR: +++
Presentation score GC: +++
Presentation score GB: +
Presentation score OC: +++
Peptide Presentation on cancer entities [1]: GB, GC, NSCLC, HCC, PCA, OSCAR, OC, BRCA, NHL

84 (ALCPRIHEV; listed as Homo sapiens) [compound 84]
Presentation score GB: ++++

36 (SLADTNSLAVV; listed as Homo sapiens) [compound 36]
Presentation score MEL: ++++
Presentation score SCLC: ++++
Peptide Presentation on cancer entities [1]: SCLC, MEL

113 (FLERGLESA; listed as Homo sapiens) [compound 113]
Presentation score OSCAR: ++++
Presentation score GC: ++++
Presentation score UBC: ++++
Peptide Presentation on cancer entities [1]: GC, OSCAR, UBC

31 (TITETTVEV; listed as Homo sapiens) [compound 31]
Presentation score GB: ++++

229 (AILAHLNTV; listed as Homo sapiens) [compound 229]
Presentation score AML: ++++
Presentation score BRCA: ++++
Presentation score CLL: ++++
Presentation score CRC: ++++
Presentation score OSCAR: ++++
Presentation score GB: ++++
Presentation score HCC: ++++
Presentation score NHL: ++++
Presentation score NSCLC: ++++
Presentation score OC: ++++
Presentation score SCLC: ++++
Presentation score UBC: ++++
Peptide Presentation on cancer entities [1]: GB, NSCLC, HCC, CLL, OSCAR, OC, SCLC, UBC, BRCA, CRC, AML, NHL
Peptide Presentation on cancer entities [2]: UEC, HNSCC

125 (SLADYEHFV; listed as Homo sapiens) [compound 125]
Presentation score GB: ++++
Presentation score PCA: ++++
Peptide Presentation on cancer entities [1]: GB, PCA
